No constants are given. Whether binding was seen depends on the method and setting. Some results given as binding are weak or reduced against the parent protein; the word gives no strength. Sequences can lack the tags named with a protein.
Experiments:
[1] = target: T1, Scc2 with 3xmyc and 3xStrepII tags (S. cerevisiae) (UniProt Q04002); assay: co-purification (affinity, heparin and gel filtration chromatography); subunits co-overexpressed in S. cerevisiae; clarified lysate on StrepTrap-HP (3xStrepII on Smc1 or Scc2), buffer A 25 mM Hepes pH 7.5, 200 mM NaCl, eluted with 5 mM desthiobiotin; HiTrap Heparin HP gradient 150 mM to 1 M NaCl; Superose 6 Increase in 300 mM NaCl; analysed by SDS-PAGE with Coomassie, Western blot and mass spectrometry
T1 sequence: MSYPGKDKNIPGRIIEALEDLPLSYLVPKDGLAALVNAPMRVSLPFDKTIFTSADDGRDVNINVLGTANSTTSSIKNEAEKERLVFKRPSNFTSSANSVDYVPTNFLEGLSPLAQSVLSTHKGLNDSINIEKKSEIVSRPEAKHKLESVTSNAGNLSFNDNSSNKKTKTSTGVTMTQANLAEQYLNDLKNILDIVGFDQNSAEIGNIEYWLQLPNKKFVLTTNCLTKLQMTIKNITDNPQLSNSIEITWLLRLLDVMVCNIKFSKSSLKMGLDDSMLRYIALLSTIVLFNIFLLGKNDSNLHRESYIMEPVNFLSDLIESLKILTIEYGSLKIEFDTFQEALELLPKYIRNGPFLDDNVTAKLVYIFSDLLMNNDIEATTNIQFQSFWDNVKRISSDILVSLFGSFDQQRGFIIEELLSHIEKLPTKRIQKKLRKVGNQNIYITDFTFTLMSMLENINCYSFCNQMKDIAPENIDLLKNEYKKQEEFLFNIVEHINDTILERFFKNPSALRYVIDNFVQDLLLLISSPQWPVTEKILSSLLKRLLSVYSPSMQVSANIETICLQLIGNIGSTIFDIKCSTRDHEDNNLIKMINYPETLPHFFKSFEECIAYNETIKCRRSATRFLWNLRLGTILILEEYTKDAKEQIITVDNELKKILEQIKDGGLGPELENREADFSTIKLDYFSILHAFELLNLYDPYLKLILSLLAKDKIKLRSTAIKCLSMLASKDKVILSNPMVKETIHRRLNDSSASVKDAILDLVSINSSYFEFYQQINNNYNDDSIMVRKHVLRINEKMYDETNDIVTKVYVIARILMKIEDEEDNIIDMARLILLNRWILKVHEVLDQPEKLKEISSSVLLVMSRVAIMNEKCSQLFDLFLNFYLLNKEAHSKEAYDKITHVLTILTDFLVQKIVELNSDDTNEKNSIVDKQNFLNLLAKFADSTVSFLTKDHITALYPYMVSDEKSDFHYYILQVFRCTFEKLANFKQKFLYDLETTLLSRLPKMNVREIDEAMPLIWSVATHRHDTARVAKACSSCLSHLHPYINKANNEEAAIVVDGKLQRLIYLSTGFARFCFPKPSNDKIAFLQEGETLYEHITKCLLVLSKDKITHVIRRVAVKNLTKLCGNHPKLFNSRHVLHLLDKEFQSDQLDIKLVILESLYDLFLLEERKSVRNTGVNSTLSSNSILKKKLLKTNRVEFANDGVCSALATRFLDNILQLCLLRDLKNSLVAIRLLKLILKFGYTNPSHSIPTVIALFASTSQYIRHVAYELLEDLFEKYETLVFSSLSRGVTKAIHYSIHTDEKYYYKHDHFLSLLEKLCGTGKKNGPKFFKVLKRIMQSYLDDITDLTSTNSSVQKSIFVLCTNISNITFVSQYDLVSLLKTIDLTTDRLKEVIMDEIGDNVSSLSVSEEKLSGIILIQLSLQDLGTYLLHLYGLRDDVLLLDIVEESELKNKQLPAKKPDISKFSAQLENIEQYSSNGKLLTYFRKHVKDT

10xHis-SA1 (human) = target: T2, 10xHis-SA1 (human) (UniProt Q8WVM7); assay: co-purification (affinity and ion exchange chromatography); human subunits coexpressed in High Five insect cells; clarified lysate on HisTrap (10xHis on SA1), wash with 500 mM NaCl and 20 mM imidazole, eluted with 150 mM imidazole; tandem anion and cation exchange, eluted with 1 M NaCl; purity confirmed by gel electrophoresis and mass spectrometry
T2 sequence: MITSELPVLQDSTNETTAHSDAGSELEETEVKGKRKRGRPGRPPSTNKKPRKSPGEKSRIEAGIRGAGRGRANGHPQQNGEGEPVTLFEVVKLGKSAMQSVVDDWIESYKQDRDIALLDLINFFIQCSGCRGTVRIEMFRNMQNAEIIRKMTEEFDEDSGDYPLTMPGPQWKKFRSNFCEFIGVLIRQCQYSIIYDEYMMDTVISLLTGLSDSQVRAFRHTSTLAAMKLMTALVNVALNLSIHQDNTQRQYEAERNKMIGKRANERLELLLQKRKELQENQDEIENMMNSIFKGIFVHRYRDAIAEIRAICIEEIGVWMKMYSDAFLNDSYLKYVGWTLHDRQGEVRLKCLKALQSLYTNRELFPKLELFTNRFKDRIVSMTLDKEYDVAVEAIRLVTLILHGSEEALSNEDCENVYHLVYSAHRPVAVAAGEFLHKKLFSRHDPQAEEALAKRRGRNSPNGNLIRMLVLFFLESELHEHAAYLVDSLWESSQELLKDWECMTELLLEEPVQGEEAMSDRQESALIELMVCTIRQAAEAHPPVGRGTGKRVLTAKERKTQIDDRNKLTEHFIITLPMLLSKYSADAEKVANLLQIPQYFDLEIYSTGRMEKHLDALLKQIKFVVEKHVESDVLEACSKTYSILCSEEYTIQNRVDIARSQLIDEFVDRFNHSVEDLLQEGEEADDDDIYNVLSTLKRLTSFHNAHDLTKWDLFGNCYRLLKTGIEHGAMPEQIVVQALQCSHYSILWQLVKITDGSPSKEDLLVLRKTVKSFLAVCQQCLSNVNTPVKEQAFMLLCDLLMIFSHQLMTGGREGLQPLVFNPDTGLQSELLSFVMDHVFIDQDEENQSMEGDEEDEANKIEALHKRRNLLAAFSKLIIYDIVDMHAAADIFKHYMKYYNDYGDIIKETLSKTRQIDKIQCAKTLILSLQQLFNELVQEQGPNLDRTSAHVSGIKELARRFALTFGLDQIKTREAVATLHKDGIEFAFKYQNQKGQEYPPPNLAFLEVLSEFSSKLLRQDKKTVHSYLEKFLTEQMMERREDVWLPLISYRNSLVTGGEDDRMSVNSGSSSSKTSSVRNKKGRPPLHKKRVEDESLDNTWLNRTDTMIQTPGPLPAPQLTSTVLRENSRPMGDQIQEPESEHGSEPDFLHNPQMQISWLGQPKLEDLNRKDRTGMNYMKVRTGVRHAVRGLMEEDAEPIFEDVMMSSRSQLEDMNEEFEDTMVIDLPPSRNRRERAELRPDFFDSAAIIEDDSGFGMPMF

B1: Scc4 (protein, UniProt P40090 1-624)
chain: MENLGDKLSISQVYHLAQEYRDHAYSIANKIGSEEGLKQYYGLMNMSIQMFQLLKTKCTLSVLEDSKVTFEMVELLIQETYNFDLAELYISSLKERLQTHQSDTDLVEEIMRCEFLLLHDLPLMRDSKFHYKIALRNCNELVQYMVNLQDELYQNWASVFQYVGVMLCIKLKQHRRVKTSFHGLLSQCREKSQWKWFLNLCYVNYLLNERFPIPEDALQELRSTELHTVGPELYAWKLALEMVIQLCKDGNITDHLNEFKNFFDTNKQSLVTNEGKGCVIKIMPRIALKVELPMIFHYKELKNILLLLQSVSYIVNCYDEKGNFSRKFLPKVYSTTQKLIKNIAAGGVSMNELDSRIQTYKSILEFCEFYKVWEQTLLKGAVVTTESPKLGPSPGYVRLLQAMKVQFEGGGAVEEYTRLAQSGGTSSEVKMISLLNCYTVQAARVSRCSGDKQGELVEQCNKVWLQVEKLLQETDLQFNPIWECTVTILWLFSHFEPFSWNPLPCSDKQRAEYVSKLREFYSSNKFVAGEAVADNRFKLKKALLLQILVNYLGGRMLEHDLGEIYAISAKCFDMCRQQGGMRKVQYVIGIWHLMNCTVAMRGKDVALTNAKLEALVKQITSVKQ
**Q.** How did the binding [1] turn out when B1 was run?
**A.** binds

B2: SMC1A (protein, UniProt Q14683 1-1233)
chain: MGFLKLIEIENFKSYKGRQIIGPFQRFTAIIGPNGSGKSNLMDAISFVLGEKTSNLRVKTLRDLIHGAPVGKPAANRAFVSMVYSEEGAEDRTFARVIVGGSSEYKINNKVVQLHEYSEELEKLGILIKARNFLVFQGAVESIAMKNPKERTALFEEISRSGELAQEYDKRKKEMVKAEEDTQFNYHRKKNIAAERKEAKQEKEEADRYQRLKDEVVRAQVQLQLFKLYHNEVEIEKLNKELASKNKEIEKDKKRMDKVEDELKEKKKELGKMMREQQQIEKEIKEKDSELNQKRPQYIKAKENTSHKIKKLEAAKKSLQNAQKHYKKRKGDMDELEKEMLSVEKARQEFEERMEEESQSQGRDLTLEENQVKKYHRLKEEASKRAATLAQELEKFNRDQKADQDRLDLEERKKVETEAKIKQKLREIEENQKRIEKLEEYITTSKQSLEEQKKLEGELTEEVEMAKRRIDEINKELNQVMEQLGDARIDRQESSRQQRKAEIMESIKRLYPGSVYGRLIDLCQPTQKKYQIAVTKVLGKNMDAIIVDSEKTGRDCIQYIKEQRGEPETFLPLDYLEVKPTDEKLRELKGAKLVIDVIRYEPPHIKKALQYACGNALVCDNVEDARRIAFGGHQRHKTVALDGTLFQKSGVISGGASDLKAKARRWDEKAVDKLKEKKERLTEELKEQMKAKRKEAELRQVQSQAHGLQMRLKYSQSDLEQTKTRHLALNLQEKSKLESELANFGPRINDIKRIIQSREREMKDLKEKMNQVEDEVFEEFCREIGVRNIREFEEEKVKRQNEIAKKRLEFENQKTRLGIQLDFEKNQLKEDQDKVHMWEQTVKKDENEIEKLKKEEQRHMKIIDETMAQLQDLKNQHLAKKSEVNDKNHEMEEIRKKLGGANKEMTHLQKEVTAIETKLEQKRSDRHNLLQACKMQDIKLPLSKGTMDDISQEEGSSQGEDSVSGSQRISSIYAREALIEIDYGDLCEDLKDAQAEEEIKQEMNTLQQKLNEQQSVLQRIAAPNMKAMEKLESVRDKFQETSDEFEAARKRAKKAKQAFEQIKKERFDRFNACFESVATNIDEIYKALSRNSSAQAFLGPENPEEPYLDGINYNCVAPGKRFRPMDNLSGGEKTVAALALLFAIHSYKPAPFFVLDEIDAALDNTNIGKVANYIKEQSTCNFQAIVISLKEEFYTKAESLIGVYPEQGDCVISKVLTFDLTKYPDANPNPNEQ
**Q.** With B2 as the binder, how does the binding (10xHis-SA1 (human)) read?
**A.** binds

From paper PMC6881171, “A conserved ATP- and Scc2/4-dependent activity for cohesin in tethering DNA molecules” (Science Advances, 2019)
